Experimental data: doi:10.1101/2021.10.08.463692
Results are given in words; binding and its absence hold for the method and conditions named. In cells and extracts the contact can be indirect. A result given as binding can be weak or reduced; the word gives no strength. Where a sequence is shown, tags or fusion partners need not be part of it.

Biological target: SspH2 LRR domain (Salmonella enterica serovar Typhimurium)
Assay: co-IP

B1: NOD1, wild type, FLAG-tagged (pcDNA3-NOD1-Flag) (receptor, UniProt Q9Y239 1-953)
chain: MEEQGHSEMEIIPSESHPHIQLLKSNRELLVTHIRNTQCLVDNLLKNDYFSAEDAEIVCACPTQPDKVRKILDLVQSKGEEVSEFFLYLLQQLADAYVDLRPWLLEIGFSPSLLTQSKVVVNTDPVSRYTQQLRHHLGRDSKFVLCYAQKEELLLEEIYMDTIMELVGFSNESLGSLNSLACLLDHTTGILNEQGETIFILGDAGVGKSMLLQRLQSLWATGRLDAGVKFFFHFRCRMFSCFKESDRLCLQDLLFKHYCYPERDPEEVFAFLLRFPHVALFTFDGLDELHSDLDLSRVPDSSCPWEPAHPLVLLANLLSGKLLKGASKLLTARTGIEVPRQFLRKKVLLRGFSPSHLRAYARRMFPERALQDRLLSQLEANPNLCSLCSVPLFCWIIFRCFQHFRAAFEGSPQLPDCTMTLTDVFLLVTEVHLNRMQPSSLVQRNTRSPVETLHAGRDTLCSLGQVAHRGMEKSLFVFTQEEVQASGLQERDMQLGFLRALPELGPGGDQQSYEFFHLTLQAFFTAFFLVLDDRVGTQELLRFFQEWMPPAGAATTSCYPPFLPFQCLQGSGPAREDLFKNKDHFQFTNLFLCGLLSKAKQKLLRHLVPAAALRRKRKALWAHLFSSLRGYLKSLPRVQVESFNQVQAMPTFIWMLRCIYETQSQKVGQLAARGICANYLKLTYCNACSADCSALSFVLHHFPKRLALDLDNNNLNDYGVRELQPCFSRLTVLRLSVNQITDGGVKVLSEELTKYKIVTYLGLYNNQITDVGARYVTKILDECKGLTHLKLGKNKITSEGGKYLALAVKNSKSISEVGMWGNQVGDEGAKAFAEALRNHPSLTTLSLASNGISTEGGKSLARALQQNTSLEILWLTQNELNDEVAESLAEMLKVNQTLKHLWLIQNQITAKGTAQLADALQSNTGITEICLNGNLIKPEEAKVYEDEKRIICF
- binding: binds
